Assay results: doi:10.1101/2023.12.05.570171
No constants are given. Whether binding was seen depends on the method and setting. Binding seen in cells or lysates may run through a third protein. Some entries that bind do so weakly or less than the wild type.

Chains of the proteins cited; added tags and fusions are not shown.
UniProt O54992: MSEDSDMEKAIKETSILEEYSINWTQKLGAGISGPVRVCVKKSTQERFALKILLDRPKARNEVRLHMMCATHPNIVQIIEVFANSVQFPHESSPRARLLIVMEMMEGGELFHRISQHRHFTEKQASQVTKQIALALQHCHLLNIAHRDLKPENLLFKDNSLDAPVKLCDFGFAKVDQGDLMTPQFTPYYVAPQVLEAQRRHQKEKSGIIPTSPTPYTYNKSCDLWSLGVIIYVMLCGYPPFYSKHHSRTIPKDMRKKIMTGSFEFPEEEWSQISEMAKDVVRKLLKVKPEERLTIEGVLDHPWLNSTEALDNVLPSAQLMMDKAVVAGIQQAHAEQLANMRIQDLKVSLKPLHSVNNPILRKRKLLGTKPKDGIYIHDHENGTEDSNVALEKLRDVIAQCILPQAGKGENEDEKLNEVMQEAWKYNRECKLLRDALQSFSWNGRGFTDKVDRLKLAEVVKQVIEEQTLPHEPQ
UniProt Q6P5G0: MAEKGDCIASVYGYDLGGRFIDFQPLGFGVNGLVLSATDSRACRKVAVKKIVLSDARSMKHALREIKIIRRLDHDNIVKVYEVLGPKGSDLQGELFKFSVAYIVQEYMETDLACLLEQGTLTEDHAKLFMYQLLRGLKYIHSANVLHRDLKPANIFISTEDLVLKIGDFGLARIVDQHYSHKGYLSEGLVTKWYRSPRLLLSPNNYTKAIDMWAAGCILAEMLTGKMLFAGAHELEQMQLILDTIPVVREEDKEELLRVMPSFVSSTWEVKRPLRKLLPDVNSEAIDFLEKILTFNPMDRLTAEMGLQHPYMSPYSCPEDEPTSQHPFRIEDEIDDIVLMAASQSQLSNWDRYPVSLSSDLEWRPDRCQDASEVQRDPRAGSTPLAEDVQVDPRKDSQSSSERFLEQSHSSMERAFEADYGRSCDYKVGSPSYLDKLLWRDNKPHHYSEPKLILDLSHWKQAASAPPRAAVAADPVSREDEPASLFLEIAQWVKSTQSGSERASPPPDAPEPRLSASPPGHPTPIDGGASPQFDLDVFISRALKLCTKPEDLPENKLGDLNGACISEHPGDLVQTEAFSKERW
UniProt Q61532: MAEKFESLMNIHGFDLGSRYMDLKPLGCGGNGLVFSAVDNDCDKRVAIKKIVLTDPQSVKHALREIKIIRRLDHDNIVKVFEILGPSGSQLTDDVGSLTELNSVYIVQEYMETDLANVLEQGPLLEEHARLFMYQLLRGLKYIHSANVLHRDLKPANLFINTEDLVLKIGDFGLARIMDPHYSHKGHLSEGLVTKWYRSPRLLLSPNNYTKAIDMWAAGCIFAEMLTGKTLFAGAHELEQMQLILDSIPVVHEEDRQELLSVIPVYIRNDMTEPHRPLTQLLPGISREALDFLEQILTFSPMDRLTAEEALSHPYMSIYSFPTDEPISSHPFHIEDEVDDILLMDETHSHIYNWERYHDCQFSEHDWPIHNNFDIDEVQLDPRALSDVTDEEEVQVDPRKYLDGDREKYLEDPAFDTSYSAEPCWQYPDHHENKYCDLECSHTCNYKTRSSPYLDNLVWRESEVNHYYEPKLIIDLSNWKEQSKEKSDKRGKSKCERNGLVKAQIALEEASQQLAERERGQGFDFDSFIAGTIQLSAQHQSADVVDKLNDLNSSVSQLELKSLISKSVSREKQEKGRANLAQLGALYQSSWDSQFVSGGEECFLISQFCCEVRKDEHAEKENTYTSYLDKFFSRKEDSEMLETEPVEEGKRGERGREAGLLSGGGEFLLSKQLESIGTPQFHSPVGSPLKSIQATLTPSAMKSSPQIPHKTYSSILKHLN
UniProt P47811: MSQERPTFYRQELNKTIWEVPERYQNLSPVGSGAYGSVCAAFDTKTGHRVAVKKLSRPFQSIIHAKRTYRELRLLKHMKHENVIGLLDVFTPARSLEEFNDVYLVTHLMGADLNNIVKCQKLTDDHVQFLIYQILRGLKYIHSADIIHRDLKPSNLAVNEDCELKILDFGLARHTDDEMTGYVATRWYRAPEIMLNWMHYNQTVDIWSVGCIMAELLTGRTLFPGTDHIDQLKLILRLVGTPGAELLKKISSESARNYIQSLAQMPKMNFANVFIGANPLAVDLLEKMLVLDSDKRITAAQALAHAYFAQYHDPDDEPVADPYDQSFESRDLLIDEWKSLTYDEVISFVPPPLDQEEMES

Target: MAP kinase-activated protein kinase (MK)-5 (mouse (endogenous in heart)) (UniProt O54992)
Experiment: co-IP

binding | Substance
no binding | ERK4/MAPK4 (from UniProt Q6P5G0 1-583)
binds | extracellular-regulated kinase (ERK)3/MAPK6 (from UniProt Q61532 1-720)
no binding | p38α MAP kinase (from UniProt P47811 1-360)
